Assay results from PubChem BioAssay AID1508600 (Functional Genomics Laboratory (NCATS/FGL), 2020).
Out of some 53,000 sequences screened, about 3,700 (7%) were called active.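 How the source made its calls: active means gene knockdowns whose robust z-score for IL-1 alpha signal is at least 2 or at most -2, so actives lie on both sides; inactive means the rest.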 This is one part of the list.

assay: Components of the Cytosolic LPS Sensing Pathway: Gene Identification via Genome-wide siRNA Screen; conditions: RAW264.7 macrophages, IL-1a HTRF, actives lie on both sides, screened at 100 nM (by protocol), cells primed 5 h with Pam3CSK4 first;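 further: robust z of the log signal after scaling to non-targeting control siRNA wells of the plate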
Outline: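 Three distinct siRNAs per gene were tested singly at 100 nM in RAW264.7 macrophages. Following Pam3CSK4 priming and 24 hour LipidA transfection, IL-1a secretion was read by HTRF.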

Sequence	z-score
GGCUGAGAACAUCAAAAAATT against Folh1	inactive: 0.816
GCUGUGCUUACAUGUUUACTT against Rpn2	inactive: -0.494
GGUAUUAAGUAGGUGUUAATT against Sec22c	inactive: 0.274
CGGAUUCUUUUCUAAAGUGTT against Lox	inactive: 0.743
GCCUUCGACAGUUUCUAGATT against Gpr162	inactive: 0.322
GCCUCAUCGUUGCUGACUATT against Pde3b	active: -2.04
GGAUAAGAUCCGACUAUUCTT against Evc2	inactive: 0.227
GGAACACACUAAAAUUCGATT against Cyp17a1	inactive: -0.183
GGUCGAACAUUUAAACUCUTT against Ifit3	inactive: -0.492
GCUUUUAAGAUCUCCCUCCTT against Gtf2h3	inactive: 0.308
GGUAACUGUGGACUUAUCUTT against Olfr665	active: -2.17
GCUCAGCAAUACUUCCUACTT against Itgal	inactive: -0.188
GGAGCUAUUUUAGAUUAUGTT against Ankrd13a	inactive: 1.12
CCCAGGAGAUCCAUAUCAATT against Pgghg	inactive: -0.914
GGGUGUCAACCCUUUAGAUTT against C130026I21Rik	inactive: 0.685
GGCCAUCACUAAAUAAUGGTT against Ctdspl2	inactive: -0.123
GGAAGUGGAAAAAGUUUAGTT against Brip1	inactive: 0.442
GGUAUUAAAUGCUAUGCUGTT against Srp54a	inactive: -0.923
GAAAGAAACCAUGUUCACATT against Lce1l	inactive: 1.36
CCCAUGAUAAUGAAUUAGCTT against Olfr378	inactive: -0.537
GGAAAAGGAUGAUUAUGAATT against Son	inactive: -1.66
GGGCCUAUGCUUACAAACGTT against Pkp3	active: 2.37

Sequence	z-score
GGCCAGCAAACAGUUUCUATT against Adgrb1	inactive: -0.174
CGGACAUUGUUCUGUUUUCTT against Por	inactive: 0.843
UAGUCAUCUUCACUCUCCUTT against Olfr1249	inactive: -0.907
GGUUUUUCUGUCAAGUGCUTT against Lgr5	inactive: -0.303
UUGGCUGCAUUAUCAUGAGTT against Olfr311	inactive: -0.419
GGGAACAUAAUGGAAAUGUTT against Il1f6	inactive: 0.861
CCUGGCUAAGCUAGAGAAUTT against Camkv	inactive: -0.368
CGUGGAAAAGCUAUGUGCGTT against Lif	inactive: -0.188
GCGAGAAUUCUCUUCCAAUTT against Gsx2	active: 2.33
GCAUAAUGUUACCUAAGUCTT against Ifngr1	inactive: -0.442
GGUUCUUAAACUCAAAUCUTT against Alox12b	inactive: 0.131
GGUCCAGCUAUCCUUGACCTT against Hgfac	inactive: -0.541
GGUCUGUUAUGCAGAAUGCTT against Ttc39a	inactive: 0.991
CCGAGGGUACCUAAGGUUUTT against Ell3	inactive: -0.278
GCAUAGCAGAGCUGUGCUATT against Aprt	inactive: -0.221
GGCCAUAAAACAUAAGCUATT against Tmem17	inactive: 0.163
GGCUGUAAAUAAAUGCCUUTT against Cdc25c	inactive: 0.111
GCGCAAAAAGGGAUCUAAGTT against Ogg1	inactive: 0.557
GGAACUGGAGAAGAUGGAGTT against Uncx	inactive: 0.748
GGGCGAGAUGCAUAAGGAUTT against Rnd2	inactive: -0.324
GGAGGAGAACAGCAAUCUUTT against Speer4d	active: -2.38
CCAAAUGAAAUUCAUUCUCTT against Ptger2	inactive: 0.746

A section taken from the entries so far:
Sequence	z-score
GCAUAGCAGAGCUGUGCUATT against Aprt	inactive: -0.221
GGCCAUAAAACAUAAGCUATT against Tmem17	inactive: 0.163

The listing continues:

Sequence	z-score
GGUGCUGCACAAAUACAUATT against Eef1aknmt	inactive: 0.715
GCAUCACACCACAGAAAGUTT against Hmgcll1	inactive: -0.616
GGCUGGUUUAUUUGUGGACTT against Cemip2	inactive: 0.574
CGAGUGAACGUGAAAAAUGTT against Myl2	inactive: 1.79
GGGUGAUGCAGAUCAUCGUTT against Prkcq	inactive: -0.465
CGAGCGACUGAAAAGAUAATT against Atad3a	inactive: -0.412
CCUUAUUGGAUCUUGUUCGTT against Catsperb	inactive: 0.633
GCCACGUCUGAACACUUCATT against Vamp8	inactive: 0.873
GCUAAUCAGGUAGUAAUUCTT against Usp9y	inactive: -0.156
GGAAGACAACAAAAGGAUGTT against Ankrd36	inactive: 0.451
GCAUUCGUCAAAUAUUAUCTT against Fanci	inactive: 1.33
GCGAAUCUUGCUUCUGACCTT against H4c8	active: -2.13
GGCCUUUGCUGUGAUGCUGTT against Ormdl3	inactive: 0.185
GCCUAUUCGGAUUAUUGAUTT against Gab1	inactive: -1.22
GGAGCUACCUGCAUGAUGATT against Spaca6	inactive: -0.361
GGCAGAAACUAAGAAUGAATT against Mx1	inactive: -0.292
GGCUCUGACGCAGAUCCAATT against Nifk	inactive: -0.288
GGAACUUGAGUUGCUACAGTT against Il12rb1	inactive: -1.25
GGACUCGAACUCAGAACCATT against Gdf15	inactive: 0.872
GGUGGAAGGACUUACAAUCTT against Hpgds	inactive: 1.07
GCCAUGACCGUUCGUGAGUTT against Kdm4a	inactive: -0.0631
CGACGUAUCCGUUCUAUAATT against Eif2s1	inactive: -1.05

Sequence	z-score
GGAGGAAGAGGAGAAUCUATT against Supt6	active: -2.57
GCAAGAUCCGAUUUCUGAUTT against Snrpd3	inactive: -1.74
GGAGGUGGUAUGUUUUAUATT against Lin54	inactive: 1.5
GGCCCUCAAUGACAUAAGCTT against Srm	inactive: 0.587
GGACCUCAGUCACUUCCAATT against Etv4	active: 2.93
GGACUAUUUCUUCAAUCCCTT against Wdr62	inactive: 0.216
GGAGAUCUAGUGAUCUUUUTT against Pank1	inactive: 0.427
GGCUUGAUAUUUGUGGUUGTT against Arf3	inactive: 0.0348
GGCAAGGAAGUCUAAAGAATT against Fbxo8	inactive: -1.05
GCACUUCGAAGAAAUAAAATT against Ahsa2	inactive: 0.396
GGAGUAUAACUAUGGCUUCTT against Mvb12a	inactive: 0.689
GGCUAUGUUUAUAUCAUCGTT against Klhl10	inactive: 0.275
CCACAGCCAUUCGCACAUATT against Exoc4	inactive: 1.54
GGUACUCUACAUGCUUAAGTT against Pnpla6	inactive: -1.48
CCCAUUCUGUAUAUAGUGCTT against Adam6a	inactive: -0.0363
CCCUUAUGAUGUAUUCCUGTT against Ddr2	inactive: -0.903
GGAGCUAUACUGCUUUUCCTT against Mtmr7	inactive: 1.61
GCGGGAGCGAGAAAAACUGTT against Dhx16	inactive: -1.35
UCGCAUGCUCAUUGGCAUGTT against Fbll1	inactive: -0.236
GCAAGCAGACUUGUCCUUCTT against Hnrnpc	inactive: -0.155
GCUGGAAAAGUGCUGUGGGTT against Sult1c1	inactive: -0.494
GGCUGUUCUUCAAGAAUAUTT against Trim32	inactive: 0.607

Reformatted in markdown: part of the list above

| Sequence | z-score |
| --- | --- |
| GGCUAUGUUUAUAUCAUCGTT against Klhl10 | inactive: 0.275 |
| CCACAGCCAUUCGCACAUATT against Exoc4 | inactive: 1.54 |
| GGUACUCUACAUGCUUAAGTT against Pnpla6 | inactive: -1.48 |
| CCCAUUCUGUAUAUAGUGCTT against Adam6a | inactive: -0.0363 |
| CCCUUAUGAUGUAUUCCUGTT against Ddr2 | inactive: -0.903 |

Additional records follow:

Sequence	z-score
GGGAUCAUGAAACAUGUCGTT against 1700020D05Rik	inactive: -0.369
GCAAAUACGGCGGAUGAACTT against Sesn3	inactive: -1.71
CUAUCACAGCCCUGUACUUTT against Olfr694	inactive: -0.367
GGGAAGAUGUGGAUGUCAUTT against Oprk1	inactive: -1.05
CGGGACCUGUGGAAUUCUCTT against Scap	inactive: -0.689
GCCUGAUCCUAAAUUUCCUTT against Svs1	inactive: -1.17
GCACUAAAGGGCUUUUCAUTT against Serping1	inactive: 0.912
GGCAAUUUUCAGAGAAGUUTT against Fosb	active: -2.08
GGUACUGAGGUGAGCCUCUTT against Myocd	active: -2.45
CCUAACUUCAUCCUGUCAUTT against Tex261	inactive: -0.0436
GCCUCGAUGGACUCAACAUTT against Crtc3	inactive: 0.496
GGAGGAAAUAAAUAUUGGGTT against Clec9a	inactive: -0.188
CGUGCUUAAGAGUCCACUATT against H3f3a	inactive: 0.477
CGGAUUGUAAAGAACUGCATT against Sfrp1	inactive: -0.0934
CCCAAAUUGAUCCUAGCCUTT against Prkar1b	inactive: 0.307
GGUUUUCGAUCAAGCCAUUTT against Mymk	inactive: 0.802
GGAGGAGAAAGAGGAUUCATT against Zfp653	inactive: 0.0148
GCUUGAUGGUAAAAAGGUUTT against Atl1	inactive: -1.18
GGCCGAAUUAAUUUCUCUGTT against Cd7	inactive: 0.613
